Assay results taken from article PMC9882608, “Structure of an endogenous mycobacterial MCE lipid transporter” (Research Square, 2023).

The chains behind the UniProt entries cited, without tags or fusion partners. Where a name states a change or a piece, a line headed by the entry shows the natural chain unless it says otherwise.
UniProt A0QNR7: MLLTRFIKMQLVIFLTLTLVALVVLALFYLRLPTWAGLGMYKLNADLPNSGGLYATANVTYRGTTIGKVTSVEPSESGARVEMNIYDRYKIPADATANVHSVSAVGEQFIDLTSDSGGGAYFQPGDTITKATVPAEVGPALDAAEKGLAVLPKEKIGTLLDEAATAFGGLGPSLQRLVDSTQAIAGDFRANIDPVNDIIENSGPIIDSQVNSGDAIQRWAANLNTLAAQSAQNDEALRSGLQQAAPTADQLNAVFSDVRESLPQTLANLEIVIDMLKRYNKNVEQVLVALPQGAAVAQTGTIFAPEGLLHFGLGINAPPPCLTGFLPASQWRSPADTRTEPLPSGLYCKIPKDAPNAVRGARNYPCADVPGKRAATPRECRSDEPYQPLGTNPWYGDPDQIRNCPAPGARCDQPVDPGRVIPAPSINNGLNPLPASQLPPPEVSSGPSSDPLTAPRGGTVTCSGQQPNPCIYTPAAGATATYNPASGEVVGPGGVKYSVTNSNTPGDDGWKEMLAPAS
UniProt A0QNR1: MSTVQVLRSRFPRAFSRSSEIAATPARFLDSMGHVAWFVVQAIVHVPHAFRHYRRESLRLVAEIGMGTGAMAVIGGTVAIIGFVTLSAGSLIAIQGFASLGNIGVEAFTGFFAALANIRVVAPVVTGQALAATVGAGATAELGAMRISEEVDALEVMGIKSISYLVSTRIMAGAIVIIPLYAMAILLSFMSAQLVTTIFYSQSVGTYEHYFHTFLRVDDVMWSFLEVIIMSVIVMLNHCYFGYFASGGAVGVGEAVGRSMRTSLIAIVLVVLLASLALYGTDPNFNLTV
UniProt A0QNR5: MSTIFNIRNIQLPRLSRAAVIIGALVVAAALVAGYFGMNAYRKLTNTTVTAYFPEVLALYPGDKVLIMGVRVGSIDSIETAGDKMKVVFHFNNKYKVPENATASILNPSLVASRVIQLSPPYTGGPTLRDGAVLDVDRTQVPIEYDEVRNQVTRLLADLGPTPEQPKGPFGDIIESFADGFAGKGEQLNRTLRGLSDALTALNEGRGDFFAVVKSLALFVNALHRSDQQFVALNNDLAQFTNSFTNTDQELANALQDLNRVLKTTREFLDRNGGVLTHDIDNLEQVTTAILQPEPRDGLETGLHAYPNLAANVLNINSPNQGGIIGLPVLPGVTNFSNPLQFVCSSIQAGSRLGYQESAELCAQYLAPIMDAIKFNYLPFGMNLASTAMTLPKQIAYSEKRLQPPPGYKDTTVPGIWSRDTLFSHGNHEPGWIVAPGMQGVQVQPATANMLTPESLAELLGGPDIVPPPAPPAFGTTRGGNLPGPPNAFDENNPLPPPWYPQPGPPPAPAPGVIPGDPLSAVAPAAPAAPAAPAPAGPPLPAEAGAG
UniProt A0QNR2: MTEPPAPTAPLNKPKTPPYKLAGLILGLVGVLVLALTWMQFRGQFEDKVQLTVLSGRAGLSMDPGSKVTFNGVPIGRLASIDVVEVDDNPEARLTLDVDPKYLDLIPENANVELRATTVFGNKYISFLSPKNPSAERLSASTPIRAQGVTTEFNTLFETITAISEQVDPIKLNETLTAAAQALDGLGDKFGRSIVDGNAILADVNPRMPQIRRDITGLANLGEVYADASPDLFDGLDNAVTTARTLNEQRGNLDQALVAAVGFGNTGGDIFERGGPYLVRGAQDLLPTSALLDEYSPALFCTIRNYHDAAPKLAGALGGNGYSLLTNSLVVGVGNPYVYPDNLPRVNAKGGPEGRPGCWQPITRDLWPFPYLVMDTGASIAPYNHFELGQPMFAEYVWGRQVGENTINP
UniProt A0QNR4: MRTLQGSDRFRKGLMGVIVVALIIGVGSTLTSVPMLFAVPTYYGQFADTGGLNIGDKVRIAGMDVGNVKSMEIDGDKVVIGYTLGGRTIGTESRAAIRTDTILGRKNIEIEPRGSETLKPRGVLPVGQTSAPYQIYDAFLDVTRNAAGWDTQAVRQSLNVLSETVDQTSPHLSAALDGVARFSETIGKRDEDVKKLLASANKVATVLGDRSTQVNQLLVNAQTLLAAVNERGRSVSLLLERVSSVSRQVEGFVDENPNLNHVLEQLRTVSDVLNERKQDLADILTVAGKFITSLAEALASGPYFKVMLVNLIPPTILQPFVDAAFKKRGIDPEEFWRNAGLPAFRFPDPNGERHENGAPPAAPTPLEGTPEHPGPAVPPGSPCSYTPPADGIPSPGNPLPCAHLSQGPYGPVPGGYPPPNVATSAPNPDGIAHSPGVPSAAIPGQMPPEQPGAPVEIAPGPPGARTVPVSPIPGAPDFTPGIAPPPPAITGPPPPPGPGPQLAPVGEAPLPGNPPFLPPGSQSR
UniProt A0QNR0: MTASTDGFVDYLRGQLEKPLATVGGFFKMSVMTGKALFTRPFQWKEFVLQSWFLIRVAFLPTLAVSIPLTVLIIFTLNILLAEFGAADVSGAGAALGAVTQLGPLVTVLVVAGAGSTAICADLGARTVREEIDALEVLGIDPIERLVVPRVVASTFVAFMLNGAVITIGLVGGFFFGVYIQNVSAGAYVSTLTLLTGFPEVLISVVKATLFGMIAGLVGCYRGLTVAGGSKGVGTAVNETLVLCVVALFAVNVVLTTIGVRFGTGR
UniProt A0QNR3: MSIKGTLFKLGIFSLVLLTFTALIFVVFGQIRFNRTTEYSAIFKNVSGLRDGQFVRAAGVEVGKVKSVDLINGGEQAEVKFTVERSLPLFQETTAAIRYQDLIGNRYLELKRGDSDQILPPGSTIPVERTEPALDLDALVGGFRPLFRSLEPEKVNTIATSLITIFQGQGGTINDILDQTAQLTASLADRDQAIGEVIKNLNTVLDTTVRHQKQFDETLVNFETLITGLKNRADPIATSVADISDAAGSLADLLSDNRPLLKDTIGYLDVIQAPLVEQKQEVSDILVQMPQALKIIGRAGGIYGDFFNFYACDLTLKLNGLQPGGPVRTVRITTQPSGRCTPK
UniProt A0QWR2: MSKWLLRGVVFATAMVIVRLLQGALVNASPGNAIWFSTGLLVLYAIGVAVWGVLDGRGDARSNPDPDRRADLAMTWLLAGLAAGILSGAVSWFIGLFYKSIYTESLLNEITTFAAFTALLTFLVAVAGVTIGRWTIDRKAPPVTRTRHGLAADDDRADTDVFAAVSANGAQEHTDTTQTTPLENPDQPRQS

Assays:
Test in all cases: cryo-EM structure
[1] = molecular target: Mce1F (Mycobacterium smegmatis (endogenous in mc2155)) (UniProt A0QNR7)
[2] = molecular target: YrbE1B (Mycobacterium smegmatis (endogenous in mc2155)) (UniProt A0QNR1)
[3] = molecular target: Mce1D (Mycobacterium smegmatis (endogenous in mc2155)) (UniProt A0QNR5)
[4] = molecular target: Mce1A (Mycobacterium smegmatis (endogenous in mc2155)) (UniProt A0QNR2)
[5] = molecular target: Mce1C (Mycobacterium smegmatis (endogenous in mc2155)) (UniProt A0QNR4)

In the case of YrbE1B (from UniProt A0QNR1), the binding [1] is reported as “binds”.
For YrbE1A (from UniProt A0QNR0), the binding [2] was “binds”.
With Mce1C (from UniProt A0QNR4) the binding [3] was “binds”.
In the case of Mce1F (from UniProt A0QNR7), the binding [4] is reported as “binds”.
For Mce1B (from UniProt A0QNR3), the binding [5] was “binds”.
Mce1D (from UniProt A0QNR5) was tested, and the binding [1] was “binds”.
For LucB (MSMEG_3032) (from UniProt A0QWR2), the binding [5] was “binds”.

These are yes or no findings as the source states them, for the method shown. A result given as binding can be weak or reduced; the word gives no strength.
